# Data source: PubChem BioAssay AID652272 (Drosophila RNAi Screening Center, 2013)
# Screen: 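Genome-wide knock-down search for components of Hedgehog signalling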 (primary screen)
# System: Drosophila clone 8 (Cl8) cells
# Knock-down reagent: long dsRNA against Drosophila genes
# Read-out: 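Firefly light from a Hedgehog-responsive ptc promoter reporter and Renilla reference light, both read on a plate reader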
# Scale: firefly Hh reporter signal: higher = more ptc reporter light; Renilla reference signal: higher = more Renilla control light
# Hit rule: 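Called a hit if the two-replicate mean z-score lies below -2 or above +3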
# Calls: active = hit: reporter lowered or raised; inactive = not a hit
# The deposit covers about 21,000 reagents; below is a random part of those with a known target gene and a result. Over the whole deposit, 503 (2.4%) got an active call. 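Raw plate light values, not normalised; calls rest on replicate z-scores that were not deposited; hits include reporter decreases as well as increases.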 The numbers tell different reagents against one gene apart. Names joined by + are all predicted targets of the reagent. The record does not give: the amount of reagent, the time to read-out.
Gene,reagent,"firefly Hh reporter signal, replicate 1","firefly Hh reporter signal, replicate 2","firefly Hh reporter signal, replicate 3","Renilla reference signal, replicate 1","Renilla reference signal, replicate 2",activity call
CG12851,1,79973,70923,,1636,5492,inactive
bumpel,1,90614,1.10e5,,3564,3152,inactive
DUBAI,1,77475,29659,,3188,1306,inactive
RNaseX25,1,82128,64549,,3468,2784,inactive
ATPsynCF6,1,4.88e5,93027,,21029,3037,inactive
CG11300,1,91149,56896,,2280,5744,inactive
CG31817,1,1.03e5,1.99e5,,2733,9864,inactive
CG31817,2,5.14e5,1.86e5,91814,2772,5195,inactive
Tret1-2,1,1.04e5,55798,,2485,5126,inactive
nej,1,55385,91472,,1580,4600,inactive
nej,2,55641,44886,,1240,1216,inactive
Jhbp6,1,92394,1.15e5,,3115,2821,inactive
mRpL30,1,72848,2.06e5,,2578,8454,inactive
CG34054,1,1.64e5,3.43e5,,4272,13835,inactive

Sorted by “Renilla reference signal, replicate 1” (highest first): some entries from above.
Gene,reagent,"firefly Hh reporter signal, replicate 1","firefly Hh reporter signal, replicate 2","firefly Hh reporter signal, replicate 3","Renilla reference signal, replicate 1","Renilla reference signal, replicate 2",activity call
ATPsynCF6,1,4.88e5,93027,,21029,3037,inactive
RNaseX25,1,82128,64549,,3468,2784,inactive
DUBAI,1,77475,29659,,3188,1306,inactive
CG11300,1,91149,56896,,2280,5744,inactive

Next reagents:
Gene,reagent,"firefly Hh reporter signal, replicate 1","firefly Hh reporter signal, replicate 2","firefly Hh reporter signal, replicate 3","Renilla reference signal, replicate 1","Renilla reference signal, replicate 2",activity call
CG43755,1,7.14e5,3.23e5,,35734,11857,inactive
par-6,1,1.12e5,99564,,2568,2103,inactive
CG6738,1,4.82e5,93248,,25638,3500,inactive
shams,1,4.75e5,85259,,23556,2364,inactive
Amyrel,1,78700,64257,,3792,3056,inactive
Gbp2,1,1.37e5,1.24e5,,5869,4971,inactive
CG11865,1,1.08e5,54281,,2739,5264,inactive
CR17567 (retired record),1,1.13e5,69609,,2873,6215,inactive
Rab6,1,72709,44642,,3787,2360,inactive
CG33270,1,61924,60064,49629,4631,2672,inactive
Sap30,1,77430,2.35e5,,3174,8231,inactive
PNUTS,1,70701,49841,,6034,4096,active
VhaPPA1-2,1,96663,1.12e5,,2444,2741,inactive
CG17377,1,8.05e5,8.73e5,3.58e5,38992,5480,inactive
CG17377,2,97962,1.52e5,,4316,5945,inactive
CG31019,1,4.15e5,1.99e5,,22352,3729,inactive
CG12506,1,72483,58490,,1723,1545,inactive
Rpp30,1,1.64e5,98391,,6105,3945,inactive
Pask,1,1.06e5,52907,,4155,1956,inactive
Oatp26F,1,77559,45723,,1915,4828,inactive
Oatp26F,2,74770,39493,,1957,4144,inactive
Oatp26F,3,80208,55159,,1769,5504,inactive
CG30058 + CG34235 + CG34312,1,1.59e5,2.34e5,,4138,10082,inactive
ppk11,1,77543,35392,,1744,2884,inactive
betaTub97EF,1,1.54e5,94052,,5427,2615,inactive
betaTub97EF,2,1.51e5,1.15e5,,5132,3507,inactive
betaTub97EF,3,1.19e5,81059,,4524,2628,inactive
